Drawing on article doi:10.1101/133777, this text covers binding for one molecule.

The chains behind the UniProt entries cited, without tags or fusion partners.
UniProt P63208: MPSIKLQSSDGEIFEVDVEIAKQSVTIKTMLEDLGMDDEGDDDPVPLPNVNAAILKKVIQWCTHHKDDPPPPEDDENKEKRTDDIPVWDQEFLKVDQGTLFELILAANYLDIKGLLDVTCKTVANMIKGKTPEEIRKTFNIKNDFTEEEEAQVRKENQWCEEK

No constants are given. Whether binding was seen depends on the method and setting. Binding seen in cells or lysates may run through a third protein. Some entries that bind do so weakly or less than the wild type. Where a sequence is shown, tags or fusion partners need not be part of it.

For this experiment, the target named is 3HA-3FLAG-tagged SKP1 (UniProt P63208). As to the kind of experiment: co-IP.

B1: 6Myc-tagged FBXL5-FB2 (protein, UniProt Q9UKA1 1-691)
chain: MAPFPEEVDVFTAPHWRMKQLVGLYCDKLSKTNFSNNNDFRALLQSLYATFKEFKMHEQIENEYIIGLLQQRSQTIYNVHSDNKLSEMLSLFEKGLKNVKNEYEQLNYAKQLKERLEAFTRDFLPHMKEEEEVFQPMLMEYFTYEELKDIKKKVIAQHCSQKDTAELLRGLSLWNHAEERQKFFKYSVDEKSDKEAEVSEHGLINKKLPKELLLRIFSYLNPQELCRCSQVSMKWSQLTKTGSLWKHLYPVHWARGDWYSGPATELDTEPDDEWVKNRKDESRAFHEWDEDADIDESEESAEESIAISIAQMEKRLLHGLIHNVLPYVGTSVKTLVLAYSSAVSSKMVRQILELCPNLEHLDLTQTDISDSAFDSWSWLGCCQSLRHLDLSGCEKITDVALEKISRALGILTSHQSGFLKTSTSKITSTAWKNKDITMQSTKQYACLHDLTNKGIGEEIDNEHPWTKPVSSENFTSPYVWMLDAEDLADIEDTVEWRHRNVESLCVMETASNFSCSTSGCFSKDIVGLRTSVCWQQHCASPAFAYCGHSFCCTGTALRTMSSLPESSAMCRKAARTRLPRGKDLIYFGSEKSDQETGRVLLFLSLSGCYQITDHGLRVLTLGGGLPYLEHLNLSGCLTITGAGLQDLVSACPSLNDEYFYYCDNINGPHADTASGCQNLQCGFRACCRSGE
Take B1: the binding result was “binds”.
